Earlier results, collected in US20170066779A1, “SOLID FORMS OF A FLAVIVIRIDAE VIRUS INHIBITOR COMPOUND AND SALTS THEREOF” (IDENIX Pharmaceuticals LLC, priority 2014, published 2017).
Some results were stated once for a whole list of compounds, not compound by compound.

Test system: HCV
Settings: adults with chronic HCV infection; in combination with interferon and/or ribavirin; cited from earlier work

CC(C)OC(=O)[C@H](C)N[P@](=O)(OC[C@H]1O[C@@H](n2ccc(=O)[nH]c2=O)[C@](C)(F)[C@@H]1O)Oc1ccccc1 [sofosbuvir]
cure rates: up to 80%
